Primary screen of a compound library

Chains of the proteins cited; added tags and fusions are not shown.
UniProt E9BF75, entry or part of it: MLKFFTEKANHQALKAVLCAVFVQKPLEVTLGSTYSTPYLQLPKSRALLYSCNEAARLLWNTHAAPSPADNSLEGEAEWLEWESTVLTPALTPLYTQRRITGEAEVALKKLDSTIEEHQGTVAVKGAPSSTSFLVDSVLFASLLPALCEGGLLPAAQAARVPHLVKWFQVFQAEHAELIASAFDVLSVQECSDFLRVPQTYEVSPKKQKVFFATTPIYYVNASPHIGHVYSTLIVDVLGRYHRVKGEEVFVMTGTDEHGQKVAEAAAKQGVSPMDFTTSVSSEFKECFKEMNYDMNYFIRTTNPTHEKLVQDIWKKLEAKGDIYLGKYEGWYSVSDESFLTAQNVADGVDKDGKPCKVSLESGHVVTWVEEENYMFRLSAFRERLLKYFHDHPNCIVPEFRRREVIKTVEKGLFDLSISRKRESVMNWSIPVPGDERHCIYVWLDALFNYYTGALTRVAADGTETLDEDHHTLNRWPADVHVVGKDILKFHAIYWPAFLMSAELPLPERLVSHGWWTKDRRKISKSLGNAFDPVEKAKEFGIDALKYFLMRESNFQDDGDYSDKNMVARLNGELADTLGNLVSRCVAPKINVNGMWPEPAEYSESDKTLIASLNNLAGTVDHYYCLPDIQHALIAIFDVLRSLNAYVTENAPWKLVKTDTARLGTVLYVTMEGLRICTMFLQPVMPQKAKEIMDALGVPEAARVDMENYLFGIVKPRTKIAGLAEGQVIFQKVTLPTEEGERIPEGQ

The values are deposited in ChEMBL (CHEMBL3988442, “University of Dundee, Small-Polar-MMV Screening Library” (2021)).

Results are percentages, as filed.
The record does not define 0% and 100%; most values in the screen are far below 50% and negative numbers occur (in some assays of this library far below -100).
The compounds are a random part of those screened.

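Methionyl-tRNA synthetase (putative), Leishmania donovani (UniProt E9BF75). Primary screen of methionyl-tRNA synthetase; the read-out is not stated. The test concentration is not given. Values are per cent inhibition. About 68,000 compounds were tested under these conditions; 0.035% (about 24) showed 50% or more at least once.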

O=C(Cc1ccsc1)N1CCCC2(COCCN(CC3CC3)C2)C1 (stereo not given) read 7.904%. With O=C(c1cccnc1N1CCCC1)N1CCOC(c2ccccc2)C1 (stereo not given) the screen gave 13.49%. Result for COc1cccc(OCCn2c(C)c(C)oc2=O)c1 was 6.25%. Result for COc1ccc(C(O)C(=O)N2CCC(c3nccn3C(C)C)CC2)cc1 (stereo not given) was 3.922%. Result for NS(=O)(=O)c1cnc(NCC2(c3cccc(F)c3)CCOCC2)s1 was 10.14%. For COc1cccc(CN2C[C@@H]3COC[C@]3(COc3cccnc3)C2)c1 the result was 12%. Cc1ncsc1CN1C[C@@H]2COC[C@]2(C(=O)NC(C)C)C1 gave 17.03%. For O=C1CCc2cc(C(=O)NCc3ccc(Cl)s3)ccc2N1 the result was 8.527%.

COC(=O)CN(C(=O)c1cccc(F)c1Cl)c1cccc(C)n1 read 17.13%. For Cc1nc2c(c(NCc3ccccc3)n1)CCN(C(=O)C1CCC1)CC2 the result was 9.804%. With CCN1CCC2(C=C(C(=O)N(C)C)c3ccccc32)CC1 the screen gave 21.3%. CN(C)C(=O)CO[C@@H]1CC[C@H]2[C@H]1OCCN2C(=O)C1CCOCC1 read 13.33%. With O=C(NCCc1ccncc1)c1cccc(S(=O)(=O)NC2CC2)c1 the screen gave 16.67%. Result for CCN1CCC(CNC(=O)c2cc(Cl)c[nH]2)CC1 was 13.51%. For O=C(NCc1ccc2c(c1)CCCO2)C1CNCCO1 (stereo not given) the result was 14.5%. CCCn1cc(C(=O)NC(CC(=O)O)c2ccccc2F)c(C)n1 (stereo not given) read 2.452%.

Cc1cccc(C(=O)N2CCn3c(CN4CCN(C)CC4)cnc3C2)n1 read 14.92%. For COc1ccc(OCCc2cc(C3CCN(CC(C)C)C3)n[nH]2)cc1 (stereo not given) the result was 19.69%. With N#Cc1cccc(N2CCCC3(C2)CN(c2nncs2)CCO3)c1 (stereo not given) the screen gave -0.7092%. O=S(=O)(C1CC1)N1CC[C@@H](OCC2CC2)[C@@H]1Cc1ccncc1 read 7.299%. For CCCc1cc(=O)[nH]c(SCc2ccccn2)n1 the result was 10.57%. For NS(=O)(=O)CCN1CCN(c2cc(F)ccc2F)CC1 the result was -0.2717%. CC(C(=O)O)N1CC2(CCC1=O)CCN(CCc1ccccc1)CC2 (stereo not given) read 10.78%. Result for CCOC(=O)N1CCN(c2nc(NCCO)c3ccccc3n2)CC1 was 8.052%.

Result for COc1ccccc1NC(=O)CC(C)NCCc1sc(C)nc1C (stereo not given) was 3.804%. For Fc1cnc(N2CC3(CCN(Cc4ccsc4)C3)C2)nc1 the result was 4.667%. For CCOc1ccc(Cl)c(C(=O)NC)n1 the result was 17.71%. NCCC1CN(Cc2cnc3c(-c4ccccc4)cnn3c2)CCO1 (stereo not given) gave 6.849%. Result for CNc1cncc(C2CCCN2S(=O)(=O)c2cccc(F)c2)n1 (stereo not given) was 13.5%. With COCC1COCCC12CCN(C(=O)CCc1ccccc1C)CC2 (stereo not given) the screen gave 6.052%. For O=C(NC1CCCC1)[C@@H]1CN(Cc2nccs2)C[C@H]2OCC[C@H]21 the result was -1.045%. NC(=O)CC1CCCCN1C(=O)c1cccc(C(F)(F)F)c1 (stereo not given) read 14.8%.

COCC(O)CNC(=O)Nc1c(F)cc(F)cc1-c1ccccc1 (stereo not given) read 19.24%. CCS(=O)(=O)CCNC(=O)C1(c2cccc(Cl)c2)CC1 gave 6.091%. CC(=O)NCCNC(=O)CN1CCCC1Cn1nc(C)nc1C (stereo not given) gave 17.46%. For CN(C)C(=O)CN1C[C@@H]2CC[C@H](C1)N(Cc1cccc(Cl)c1Cl)C2 the result was 17.5%. With CC(=O)N1CCc2nnc(C3CCCCN3CC3CC3)n2CC1 (stereo not given) the screen gave 7.097%. With CC(C)(C)OC(=O)NCC1CCCCN1Cc1ccncc1 (stereo not given) the screen gave 9.964%. For CCNC(=O)[C@@H]1C[C@H](N)CN1Cc1ccc2cccc(Cl)c2n1 the result was 17.4%. COc1ccnc(NC(Cc2ccccc2)C(=O)N(C)C)n1 (stereo not given) read -1.083%.

Result for Cc1nc(-c2ccc(F)c(F)c2)cc(C2CCNCC2)n1 was 16.49%. O=C1N(Cc2cccnc2)C[C@H]2CN(C3CCOCC3)CCN12 read 10.53%. Cc1nc(CN2CCCC(NCc3cnn(C)c3)C2)no1 (stereo not given) gave 21.37%. Result for Cc1cc(C(=O)Nc2cccn(Cc3ccc(F)cc3)c2=O)on1 was 9.922%. With COc1cccc(N2CCN(C(=O)c3noc4c3CCCC4)CC2)c1 the screen gave 17.49%. For CC(C)=CCCC1(C)C=Cc2c(cc(C)n(CC(=O)O)c2=O)O1 (stereo not given) the result was 15.56%. COc1cc([C@@H]2N[C@H](c3nccs3)Cc3ccsc32)cc(OC)c1OC gave 18.44%. Result for CC(C)NC(=O)N1CCCC(c2nnc(CN3CCOCC3)n2C)C1 (stereo not given) was 15.38%.

Cn1cc(CCNC(=O)N2CCCC(c3nncn3C)C2)cn1 (stereo not given) read 25%. Result for CCc1nc(N)nc(N2CCCC3(CCOCC3)C2)c1C was 12.33%. With Cc1ccc(NC(=O)Cn2cc(I)cn2)cc1 the screen gave 4.425%. COc1cccc(OC)c1CN1CC(O)CN(S(C)(=O)=O)CC1=O (stereo not given) read 5.205%. Cc1cnn(CC(C)Nc2cnc3ccccc3n2)c1 (stereo not given) gave 14.92%. O=C(C1CCC1)N1C[C@H]2CNC[C@H]2C1 read -0.5602%. For O=C(C1CCCCC1)N1CCC2(COc3ncccc3S(=O)(=O)N2)C1 (stereo not given) the result was 13.14%.

The last 4 entries again:

structure	Inhibition
COc1cccc(OC)c1CN1CC(O)CN(S(C)(=O)=O)CC1=O (stereo not given)	5.205
Cc1cnn(CC(C)Nc2cnc3ccccc3n2)c1 (stereo not given)	14.92
O=C(C1CCC1)N1C[C@H]2CNC[C@H]2C1	-0.5602
O=C(C1CCCCC1)N1CCC2(COc3ncccc3S(=O)(=O)N2)C1 (stereo not given)	13.14